Data on one compound can be found in patent publication US10233190B2, “IDO inhibitors” (NewLink Genetics Corporation, priority 2011, dated 2019).

Chains of the proteins cited; added tags and fusions are not shown.
UniProt P14902, whole entry P110S/E119G: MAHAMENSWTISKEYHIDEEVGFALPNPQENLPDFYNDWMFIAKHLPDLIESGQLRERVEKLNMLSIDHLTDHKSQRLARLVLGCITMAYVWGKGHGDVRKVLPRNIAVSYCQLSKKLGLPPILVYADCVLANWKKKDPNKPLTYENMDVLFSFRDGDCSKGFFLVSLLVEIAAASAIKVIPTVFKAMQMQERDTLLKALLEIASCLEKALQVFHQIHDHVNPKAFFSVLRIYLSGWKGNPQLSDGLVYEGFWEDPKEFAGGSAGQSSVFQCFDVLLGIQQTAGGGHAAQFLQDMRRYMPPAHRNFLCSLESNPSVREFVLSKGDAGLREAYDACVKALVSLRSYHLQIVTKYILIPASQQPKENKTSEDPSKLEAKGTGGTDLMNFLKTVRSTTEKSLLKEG

The match of structure and compound is tentative.

For the assay, the target named is purified human IDO protein (Homo sapiens (Human), UniProt P14902, E119G/P110S). Put plainly: Enzymatic IDO assay (kynurenine production, absorbance at 480 nm). The assay is classed as biochemical. Particulars: read-out: hIDO IC50; recombinant human IDO, enzymatic activity.

What is called IC50 is the midpoint of a concentration-inhibition curve. For the compound `Cc1coc(C)c1C(O)CC1c2c(F)cccc2-c2cncn21` (stereo not shown), the IC50 fell in the range of 1 to 10 µM.
